# The supplement of paper PMC12823440, “Inhibitors supercharge kinase turnover through native proteolytic circuits” (Nature, 2025)
# Structures can show the parent of a compound that is named as a salt. The list shows a part of the results. The calls rarely recur for the same compound in another form.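 In K562 cells expressing nanoluciferase-fused kinases, luminescence was recorded at 4 h intervals between 2 and 18 h, normalized as percent of control with DMSO at 100% and a positive control at 0%. A significant (2 sigma) signal drop marks a time point as decreased. The authors' rule for a hit is not shown and takes in more than the number of time points.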
# Target: MAP2K2 (UniProt P36507)
# Assay: number of time points (of 5) at which kinase-Nluc abundance scored as decreased, DMSO-normalised (count); higher = more persistent destabilization
# Conditions: K562; 2-18 h
row,Compound,number of time points
1,COc1cc2c(cc1OC)CN(S(=O)(=O)c1ccc(OC)c(N3CCN(C(=O)c4ccc(F)cc4C(F)(F)F)CC3)c1)CC2 (10 µM),0
2,OCCn1cc(-c2ccc3c(c2)CC/C3=N\O)c(-c2ccncc2)n1 (10 µM),0
3,C[C@@H]1CC[C@@H](Nc2nc(NC(C)(C)C)ncc2C(N)=O)C[C@H]1O (10 µM),0
4,CCc1cc2c(cc1N1CCC(N3CCOCC3)CC1)C(C)(C)c1[nH]c3cc(C#N)ccc3c1C2=O [Alectinib] (10 µM),0
5,COCCNc1nc2ccc(C#CC3(O)CCCCC3)cc2n1-c1ccnc(N)n1 (10 µM),0
6,Cc1[nH]c(/C=C2\C(=O)Nc3ccccc32)c(C)c1CCC(=O)O [Orantinib] (10 µM),0
7,Nc1cc(C(F)(F)F)c(-c2cc(N3CCOCC3)nc(N3CCOCC3)n2)cn1 [Buparlisib (Hydrochloride)] (2.5 µM),0
8,CCN1CCN(Cc2ccc(Nc3ncc(F)c(-c4cc(F)c5nc(C)n(C(C)C)c5c4)n3)nc2)CC1 [Abemaciclib (methanesulfonate)] (10 µM),0
9,Cc1ccc2cc(-c3c(C)ccc(C(=O)c4c(-c5ccccc5)n(C)n(-c5ccccc5)c4=O)c3N)ccc2n1 (2.5 µM),0
10,FC(F)(c1ccc2ncccc2c1)c1nnc2ccc(-c3ccncc3)nn12 (10 µM),0
11,O=C1N[C@@H](Cc2c[nH]c3ccccc23)C(=O)N2CCC[C@@H]12 [Brevianamide F] (10 µM),0
12,Cc1nc2sccn2c(=O)c1CCN1CCC(=C(c2ccccc2)c2ccc(F)cc2)CC1 (10 µM),0

# Ordered by number of heavy atoms (low to high): some entries from above.
row,Compound,number of time points
11,O=C1N[C@@H](Cc2c[nH]c3ccccc23)C(=O)N2CCC[C@@H]12 [Brevianamide F] (10 µM),0
6,Cc1[nH]c(/C=C2\C(=O)Nc3ccccc32)c(C)c1CCC(=O)O [Orantinib] (10 µM),0
1,COc1cc2c(cc1OC)CN(S(=O)(=O)c1ccc(OC)c(N3CCN(C(=O)c4ccc(F)cc4C(F)(F)F)CC3)c1)CC2 (10 µM),0
